Measurements from the supplement of paper PMC10849652.
The list shows a part of the results.

By UniProt entry, the sequences of proteins in these tests, tags left out. Where a name states a change or a piece, a line headed by the entry shows the natural chain unless it says otherwise.
UniProt Q9Y5J9: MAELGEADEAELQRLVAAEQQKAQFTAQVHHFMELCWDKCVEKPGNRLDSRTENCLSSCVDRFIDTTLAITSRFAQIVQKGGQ
UniProt Q9UKI8: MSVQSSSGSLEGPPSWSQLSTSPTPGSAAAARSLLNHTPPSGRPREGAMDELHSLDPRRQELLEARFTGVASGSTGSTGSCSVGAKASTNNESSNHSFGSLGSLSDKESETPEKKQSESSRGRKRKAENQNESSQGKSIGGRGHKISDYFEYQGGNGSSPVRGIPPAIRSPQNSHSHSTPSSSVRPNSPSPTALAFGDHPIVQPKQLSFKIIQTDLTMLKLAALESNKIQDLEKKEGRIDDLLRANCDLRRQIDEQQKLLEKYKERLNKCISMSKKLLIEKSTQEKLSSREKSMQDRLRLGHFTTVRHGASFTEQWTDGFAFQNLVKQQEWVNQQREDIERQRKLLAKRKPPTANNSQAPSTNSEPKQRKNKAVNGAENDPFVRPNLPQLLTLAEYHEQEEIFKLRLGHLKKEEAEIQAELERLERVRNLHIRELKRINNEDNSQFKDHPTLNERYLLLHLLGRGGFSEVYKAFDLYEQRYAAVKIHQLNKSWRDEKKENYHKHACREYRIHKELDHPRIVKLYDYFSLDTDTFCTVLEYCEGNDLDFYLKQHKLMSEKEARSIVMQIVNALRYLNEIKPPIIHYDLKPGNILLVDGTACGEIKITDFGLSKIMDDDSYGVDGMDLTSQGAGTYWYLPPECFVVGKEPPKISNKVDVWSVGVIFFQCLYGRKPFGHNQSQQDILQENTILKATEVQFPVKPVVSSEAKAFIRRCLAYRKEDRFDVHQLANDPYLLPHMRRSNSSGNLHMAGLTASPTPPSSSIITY
UniProt P17152: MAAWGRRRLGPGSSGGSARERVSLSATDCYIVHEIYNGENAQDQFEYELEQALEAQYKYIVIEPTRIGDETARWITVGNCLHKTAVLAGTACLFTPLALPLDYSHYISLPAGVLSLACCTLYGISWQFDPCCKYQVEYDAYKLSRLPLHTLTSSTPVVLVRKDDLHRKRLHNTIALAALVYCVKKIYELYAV
UniProt Q96MV1: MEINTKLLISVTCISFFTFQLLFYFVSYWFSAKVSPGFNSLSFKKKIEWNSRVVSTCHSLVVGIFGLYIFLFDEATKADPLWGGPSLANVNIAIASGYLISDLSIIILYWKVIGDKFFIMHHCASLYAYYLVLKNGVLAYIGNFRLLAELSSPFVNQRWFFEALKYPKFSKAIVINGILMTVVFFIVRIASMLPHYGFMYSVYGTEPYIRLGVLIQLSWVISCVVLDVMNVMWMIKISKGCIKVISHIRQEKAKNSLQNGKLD
UniProt Q9Y4G6: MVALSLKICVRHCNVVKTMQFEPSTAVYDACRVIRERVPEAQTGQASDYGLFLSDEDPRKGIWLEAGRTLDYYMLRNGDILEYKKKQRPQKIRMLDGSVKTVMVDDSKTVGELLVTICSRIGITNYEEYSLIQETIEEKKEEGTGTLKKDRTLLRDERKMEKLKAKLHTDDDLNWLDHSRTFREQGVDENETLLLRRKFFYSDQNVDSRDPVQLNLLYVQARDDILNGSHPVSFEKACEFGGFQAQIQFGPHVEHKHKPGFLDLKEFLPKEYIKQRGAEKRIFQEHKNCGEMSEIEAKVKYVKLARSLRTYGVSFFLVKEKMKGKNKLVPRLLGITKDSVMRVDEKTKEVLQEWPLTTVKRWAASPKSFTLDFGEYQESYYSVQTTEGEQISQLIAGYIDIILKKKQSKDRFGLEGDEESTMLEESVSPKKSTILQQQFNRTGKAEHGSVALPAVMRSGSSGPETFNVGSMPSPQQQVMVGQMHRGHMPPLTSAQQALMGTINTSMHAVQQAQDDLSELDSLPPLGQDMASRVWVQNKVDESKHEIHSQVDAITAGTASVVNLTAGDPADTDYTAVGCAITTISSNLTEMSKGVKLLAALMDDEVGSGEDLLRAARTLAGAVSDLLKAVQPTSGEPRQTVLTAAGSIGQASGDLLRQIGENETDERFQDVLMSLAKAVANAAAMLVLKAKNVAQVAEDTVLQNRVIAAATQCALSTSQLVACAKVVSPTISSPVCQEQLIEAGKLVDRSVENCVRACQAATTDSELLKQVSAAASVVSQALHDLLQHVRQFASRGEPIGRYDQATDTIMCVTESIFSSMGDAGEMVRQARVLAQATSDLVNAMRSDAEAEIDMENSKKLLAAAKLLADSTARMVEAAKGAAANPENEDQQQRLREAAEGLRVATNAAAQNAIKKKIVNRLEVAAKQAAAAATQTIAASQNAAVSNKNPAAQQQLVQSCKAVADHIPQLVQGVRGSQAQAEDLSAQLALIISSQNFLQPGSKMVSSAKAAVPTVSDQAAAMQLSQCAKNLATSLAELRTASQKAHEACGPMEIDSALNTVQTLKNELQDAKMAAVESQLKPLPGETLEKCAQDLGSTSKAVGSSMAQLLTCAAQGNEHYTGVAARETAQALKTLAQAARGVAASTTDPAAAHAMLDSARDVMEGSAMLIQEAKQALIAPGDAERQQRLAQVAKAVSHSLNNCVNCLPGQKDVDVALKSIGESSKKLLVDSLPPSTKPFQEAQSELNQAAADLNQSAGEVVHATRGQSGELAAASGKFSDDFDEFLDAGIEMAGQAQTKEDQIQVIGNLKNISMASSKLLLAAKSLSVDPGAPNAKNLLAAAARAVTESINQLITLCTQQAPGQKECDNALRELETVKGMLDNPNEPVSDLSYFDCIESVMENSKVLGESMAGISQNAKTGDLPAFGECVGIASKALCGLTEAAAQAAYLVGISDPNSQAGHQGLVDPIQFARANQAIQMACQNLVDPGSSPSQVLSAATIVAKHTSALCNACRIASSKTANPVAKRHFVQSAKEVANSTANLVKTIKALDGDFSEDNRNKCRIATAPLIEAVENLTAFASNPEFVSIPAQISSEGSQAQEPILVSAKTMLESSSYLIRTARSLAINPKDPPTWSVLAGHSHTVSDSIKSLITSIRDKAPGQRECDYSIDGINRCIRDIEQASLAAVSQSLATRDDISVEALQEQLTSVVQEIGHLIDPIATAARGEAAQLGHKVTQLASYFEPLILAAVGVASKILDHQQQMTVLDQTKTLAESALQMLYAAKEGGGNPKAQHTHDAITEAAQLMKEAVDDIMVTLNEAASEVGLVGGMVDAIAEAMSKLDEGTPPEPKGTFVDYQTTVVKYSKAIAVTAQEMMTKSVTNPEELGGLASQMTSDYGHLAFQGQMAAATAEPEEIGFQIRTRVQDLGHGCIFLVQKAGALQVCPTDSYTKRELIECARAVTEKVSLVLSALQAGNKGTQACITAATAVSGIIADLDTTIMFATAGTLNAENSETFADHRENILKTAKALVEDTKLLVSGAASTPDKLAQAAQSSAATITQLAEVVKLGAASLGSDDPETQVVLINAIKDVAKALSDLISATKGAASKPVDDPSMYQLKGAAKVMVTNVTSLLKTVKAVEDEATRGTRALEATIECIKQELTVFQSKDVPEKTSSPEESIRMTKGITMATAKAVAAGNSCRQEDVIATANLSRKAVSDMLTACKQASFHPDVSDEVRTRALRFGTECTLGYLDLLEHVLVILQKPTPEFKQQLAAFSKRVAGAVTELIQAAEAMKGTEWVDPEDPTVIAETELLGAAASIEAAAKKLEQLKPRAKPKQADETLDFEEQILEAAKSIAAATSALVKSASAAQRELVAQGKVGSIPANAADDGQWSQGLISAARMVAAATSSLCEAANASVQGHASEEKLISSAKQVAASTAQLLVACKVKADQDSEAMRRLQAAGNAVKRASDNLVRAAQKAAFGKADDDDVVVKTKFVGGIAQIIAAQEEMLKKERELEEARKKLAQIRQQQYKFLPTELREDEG
UniProt O14925: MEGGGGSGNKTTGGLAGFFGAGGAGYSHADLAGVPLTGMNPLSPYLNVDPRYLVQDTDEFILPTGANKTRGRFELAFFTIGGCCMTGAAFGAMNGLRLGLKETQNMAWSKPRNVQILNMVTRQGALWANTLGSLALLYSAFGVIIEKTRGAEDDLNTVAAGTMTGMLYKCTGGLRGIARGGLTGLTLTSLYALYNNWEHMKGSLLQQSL
UniProt Q96AN5: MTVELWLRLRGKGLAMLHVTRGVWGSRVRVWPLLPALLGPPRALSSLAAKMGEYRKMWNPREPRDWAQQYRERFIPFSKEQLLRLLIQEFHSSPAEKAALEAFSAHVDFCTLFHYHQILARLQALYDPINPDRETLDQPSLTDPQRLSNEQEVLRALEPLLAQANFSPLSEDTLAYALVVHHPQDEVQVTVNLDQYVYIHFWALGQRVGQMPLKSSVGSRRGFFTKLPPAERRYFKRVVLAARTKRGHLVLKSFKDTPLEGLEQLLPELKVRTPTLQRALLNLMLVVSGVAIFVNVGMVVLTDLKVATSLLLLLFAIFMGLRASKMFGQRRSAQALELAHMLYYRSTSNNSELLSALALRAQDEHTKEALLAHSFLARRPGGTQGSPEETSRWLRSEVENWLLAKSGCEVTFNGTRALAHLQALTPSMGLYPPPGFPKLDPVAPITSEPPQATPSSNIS
UniProt Q8TBQ9: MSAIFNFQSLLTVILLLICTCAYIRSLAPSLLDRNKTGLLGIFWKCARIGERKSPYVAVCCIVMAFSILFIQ
UniProt Q9Y5J6: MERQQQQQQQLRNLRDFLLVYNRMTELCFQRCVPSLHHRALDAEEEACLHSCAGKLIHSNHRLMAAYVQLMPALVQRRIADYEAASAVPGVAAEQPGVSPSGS
UniProt P04183: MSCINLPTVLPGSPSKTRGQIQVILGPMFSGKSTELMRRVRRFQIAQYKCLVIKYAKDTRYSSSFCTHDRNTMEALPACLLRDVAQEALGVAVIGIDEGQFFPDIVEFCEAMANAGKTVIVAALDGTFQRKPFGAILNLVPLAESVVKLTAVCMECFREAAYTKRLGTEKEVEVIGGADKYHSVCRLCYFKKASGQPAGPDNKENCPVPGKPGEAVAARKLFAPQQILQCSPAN
UniProt O75663: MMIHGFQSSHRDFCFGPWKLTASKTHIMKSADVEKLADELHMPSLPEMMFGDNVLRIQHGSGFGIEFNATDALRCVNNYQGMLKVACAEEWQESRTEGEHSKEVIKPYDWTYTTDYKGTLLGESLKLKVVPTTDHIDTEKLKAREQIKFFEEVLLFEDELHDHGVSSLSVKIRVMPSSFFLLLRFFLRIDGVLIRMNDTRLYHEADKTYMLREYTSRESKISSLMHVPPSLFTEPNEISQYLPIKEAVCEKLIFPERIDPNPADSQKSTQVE
UniProt Q96CP7: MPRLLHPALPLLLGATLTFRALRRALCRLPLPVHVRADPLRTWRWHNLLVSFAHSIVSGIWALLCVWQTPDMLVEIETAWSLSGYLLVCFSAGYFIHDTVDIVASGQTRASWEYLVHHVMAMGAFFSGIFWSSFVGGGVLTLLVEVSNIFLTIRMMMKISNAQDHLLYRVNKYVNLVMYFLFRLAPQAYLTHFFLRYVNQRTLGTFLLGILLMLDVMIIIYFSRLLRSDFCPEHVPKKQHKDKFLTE
UniProt O15321, whole entry, looked up: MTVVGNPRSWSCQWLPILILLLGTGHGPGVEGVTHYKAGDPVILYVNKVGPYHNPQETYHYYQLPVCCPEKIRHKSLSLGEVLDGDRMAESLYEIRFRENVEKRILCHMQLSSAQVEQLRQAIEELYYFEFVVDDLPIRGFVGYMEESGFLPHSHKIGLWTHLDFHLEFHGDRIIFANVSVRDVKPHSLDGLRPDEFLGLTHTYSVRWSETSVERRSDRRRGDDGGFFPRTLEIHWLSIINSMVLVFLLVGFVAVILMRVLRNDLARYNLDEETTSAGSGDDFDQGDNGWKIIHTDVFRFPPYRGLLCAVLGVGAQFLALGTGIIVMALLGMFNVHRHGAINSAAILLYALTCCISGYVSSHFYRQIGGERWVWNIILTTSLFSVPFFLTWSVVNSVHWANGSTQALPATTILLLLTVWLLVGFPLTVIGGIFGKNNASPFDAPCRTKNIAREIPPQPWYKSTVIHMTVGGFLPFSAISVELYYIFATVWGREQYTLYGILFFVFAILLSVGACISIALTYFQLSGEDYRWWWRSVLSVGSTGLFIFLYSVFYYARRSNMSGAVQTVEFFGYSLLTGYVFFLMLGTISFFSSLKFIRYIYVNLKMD
UniProt Q7Z6K1, whole entry, looked up: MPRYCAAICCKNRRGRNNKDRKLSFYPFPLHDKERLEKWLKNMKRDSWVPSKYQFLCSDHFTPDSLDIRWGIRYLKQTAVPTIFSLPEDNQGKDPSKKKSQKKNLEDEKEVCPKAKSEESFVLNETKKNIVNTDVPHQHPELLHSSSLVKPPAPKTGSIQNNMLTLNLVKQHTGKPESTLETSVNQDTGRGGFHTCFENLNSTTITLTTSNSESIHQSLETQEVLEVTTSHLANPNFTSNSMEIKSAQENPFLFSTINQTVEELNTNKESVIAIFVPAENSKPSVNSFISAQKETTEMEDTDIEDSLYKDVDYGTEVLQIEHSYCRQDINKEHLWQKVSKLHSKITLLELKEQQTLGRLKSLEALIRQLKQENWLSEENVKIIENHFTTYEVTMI

Key:
Experiment in all cases: log2 fold change, soluble protein after heating vs DMSO (PISA); higher = thermal stabilisation; K562 lysate, 10 uM; active = over 0.2 and 3.5 SD of the protein, either way, in both replicates (recomputed)
vemurafenib = compound: CCCS(=O)(=O)Nc1ccc(F)c(C(=O)c2c[nH]c3ncc(-c4ccc(Cl)cc4)cc23)c1F [vemurafenib]
Procedure, shortened: (§1)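 Following dounce homogenisation of K562 pellets in PBS pH 7.4 with 1 mM MgCl2, crude extract at 1 mg/mL protein was incubated for 30 min with 10 μM compound. Aliquots were then heated for 3 min over 48°C-58°C and pooled, NP-40 was added to 0.5% at 4°C, and soluble protein was recovered as the supernatant at 21,000xg for 90 min. Channel-sum-equalised TMTpro 16plex LC-MS/MS quantified this protein. Each value, from duplicates, is a log-two fold change in thermal stability relative to solvent controls.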

[1] = compound: CCCS(=O)(=O)Nc1ccc(F)c(C(=O)c2c[nH]c3ncc(Cl)cc23)c1F
Procedure, shortened: as §1

barasertib = compound: CCN(CCCOc1ccc2c(Nc3cc(CC(=O)Nc4cccc(F)c4)[nH]n3)ncnc2c1)CCOP(=O)(O)O [barasertib]
Procedure, shortened: as §1

[2] = compound: CC[C@@H]1C(=O)N(C)c2cnc(Nc3ccc(C(=O)NC4CCN(C)CC4)cc3OC)nc2N1C1CCCC1
Procedure, shortened: as §1

volasertib = compound: CC[C@@H]1C(=O)N(C)c2cnc(Nc3ccc(C(=O)N[C@H]4CC[C@H](N5CCN(CC6CC6)CC5)CC4)cc3OC)nc2N1C(C)C [volasertib]
Procedure, shortened: as §1

[3] = compound: CCn1c(C(=O)N(C2CC2)C2CC2)cc2c3c(ncn3C)c(Nc3cc(C)n(C)n3)nc21
Procedure, shortened: as §1

[4] = compound: CCn1cc(-c2ccnc3[nH]c(-c4cccc(CN(C)C)c4)cc23)c(-c2ccc(NC(=O)N(C)C)cc2)n1
Procedure, shortened: as §1

[5] = compound: CN1CCC(CNc2ccc3ncc(-c4cccc(OC(F)(F)F)c4)n3n2)CC1
Procedure, shortened: as §1

saracatinib = compound: CN1CCN(CCOc2cc(OC3CCOCC3)c3c(Nc4c(Cl)ccc5c4OCO5)ncnc3c2)CC1 [saracatinib]
Procedure, shortened: as §1

sotrastaurin = compound: CN1CCN(c2nc(C3=C(c4c[nH]c5ccccc45)C(=O)NC3=O)c3ccccc3n2)CC1 [sotrastaurin]
Procedure, shortened: as §1

Measured: log2 fold change

TIMM8B (UniProt Q9Y5J9)
inactive: vemurafenib -0.035 | [1] -0.028 | barasertib 0.089 | [2] -0.01 | volasertib 0.047 | [3] 0.094 | [4] 0.157 | [5] -0.133 | saracatinib -0.052 | sotrastaurin -0.04

TMEM177 (UniProt Q53S58)
inactive: vemurafenib -0.057 | [1] 0.011 | barasertib 0.063 | [2] -0.005 | volasertib -0.076 | [3] 0.078 | [4] 0.056 | [5] -0.161 | sotrastaurin -0.017

TMEM161A (UniProt Q9NX61)
inactive: vemurafenib -0.164 | [1] 0.109 | barasertib 0.095 | [2] -0.005 | volasertib 0.024 | [3] -0.02 | [4] 0.107 | [5] -0.298 | saracatinib -0.018 | sotrastaurin 0.01

TLK1 isoform 2 (UniProt Q9UKI8)
inactive: vemurafenib 0.001 | [1] -0.003 | barasertib 0.06 | [2] -0.048 | volasertib -0.078 | [3] 0.01 | [4] -0.092 | [5] 0.072 | saracatinib 0.014
active: sotrastaurin 0.393

TMEM11 (UniProt P17152)
inactive: vemurafenib -0.045 | [1] 0.018 | barasertib 0.03 | [2] 0.086 | volasertib 0 | [3] 0.063 | [4] -0.075 | [5] 0.038 | saracatinib -0.043 | sotrastaurin -0.017

TK1 (UniProt K7ERV3)
inactive: vemurafenib -0.001 | barasertib 0.072 | [2] -0.105 | [3] 0.049 | [4] -0.102 | [5] 0.068 | saracatinib 0.089 | sotrastaurin -0.147

TMC6 (UniProt Q7Z403)
inactive: vemurafenib -0.151 | [1] 0.068 | volasertib 0.133 | [3] -0.012 | sotrastaurin 0.016

TMEM161B (UniProt Q8NDZ6)
inactive: vemurafenib -0.112 | [1] -0.076 | barasertib 0.076 | [2] -0.073 | volasertib -0.055 | [3] -0.028 | [4] 0.055 | [5] -0.104 | sotrastaurin 0.009

TMED5 (UniProt Q9Y3A6)
inactive: vemurafenib -0.045 | [1] -0.001 | barasertib -0.012 | [2] 0.002 | volasertib -0.01 | [3] -0.03 | [4] -0.016 | [5] 0.014 | saracatinib 0.019 | sotrastaurin -0.011

TLCD4 (UniProt Q96MV1)
inactive: vemurafenib 0.017 | [1] 0.02 | barasertib -0.003 | [2] 0.008 | volasertib 0.011 | [3] 0.124 | [4] -0.166 | [5] 0.112 | saracatinib 0.045 | sotrastaurin 0.009

TLN2 (UniProt Q9Y4G6)
inactive: vemurafenib -0.02 | [1] -0.008 | barasertib 0.121 | [2] 0.022 | volasertib 0.008 | [3] 0.001 | [4] 0.259 | [5] -0.025 | saracatinib -0.005 | sotrastaurin 0

TJP1 (UniProt G3V1L9)
inactive: vemurafenib 0.076 | barasertib -0.034 | [3] -0.021 | [4] 0.04 | [5] -0.004 | saracatinib 0.096 | sotrastaurin -0.046

2 records picked at random from those above:
TK1 (UniProt K7ERV3)
inactive: vemurafenib -0.001 | barasertib 0.072 | [2] -0.105 | [3] 0.049 | [4] -0.102 | [5] 0.068 | saracatinib 0.089 | sotrastaurin -0.147

TMEM11 (UniProt P17152)
inactive: vemurafenib -0.045 | [1] 0.018 | barasertib 0.03 | [2] 0.086 | volasertib 0 | [3] 0.063 | [4] -0.075 | [5] 0.038 | saracatinib -0.043 | sotrastaurin -0.017

Later entries.

TIMM23 (UniProt O14925)
inactive: vemurafenib 0.028 | [1] -0.008 | barasertib 0.021 | [2] 0 | volasertib 0.022 | [3] 0.005 | [4] -0.091 | [5] 0.029 | saracatinib -0.013 | sotrastaurin 0.058

TGM2 (UniProt P21980)
inactive: vemurafenib 0.016 | [1] -0.015 | barasertib -0.011 | [2] -0.032 | volasertib 0.008 | [3] 0.004 | [4] -0.021 | [5] -0.002 | saracatinib 0.027 | sotrastaurin -0.004

TIMM17B (UniProt O60830)
inactive: vemurafenib 0.055 | [1] -0.006 | barasertib 0.015 | [2] 0.029 | volasertib 0.053 | [3] 0.046 | [4] -0.01 | [5] 0.039 | saracatinib -0.032 | sotrastaurin -0.008

TMEM167B (UniProt Q9NRX6)
inactive: vemurafenib 0.058 | [1] -0.057 | barasertib -0.009 | [2] 0.053 | volasertib 0.038 | [3] -0.028 | [5] 0.086 | sotrastaurin 0.056
active: [4] -0.472

TMCO3 (UniProt Q6UWJ1)
inactive: vemurafenib 0.038 | barasertib 0.028 | [2] 0.12 | [4] 0.167 | [5] 0.052 | sotrastaurin -0.03

TMEM143 (UniProt Q96AN5)
inactive: vemurafenib -0.147 | [1] -0.032 | [2] -0.035 | volasertib -0.077 | [3] -0.152 | [4] 0.114 | [5] -0.056 | saracatinib -0.007 | sotrastaurin -0.009

TMEM120B (UniProt A0PK00)
inactive: vemurafenib -0.217 | [1] 0.123 | [2] -0.025 | volasertib -0.117 | saracatinib 0.071 | sotrastaurin -0.016

TMEM167A (UniProt Q8TBQ9)
inactive: vemurafenib -0.009 | [1] 0.049 | barasertib 0.011 | [2] -0.029 | volasertib -0.001 | [3] 0.004 | [4] -0.162 | [5] 0.063 | saracatinib 0.002 | sotrastaurin -0.093

TIMM10B (UniProt Q9Y5J6)
inactive: vemurafenib -0.052 | barasertib 0.099 | [3] 0.045 | [4] -0.043 | [5] -0.031 | saracatinib 0.116 | sotrastaurin -0.009

TK1 (UniProt P04183)
inactive: vemurafenib 0.022 | [1] 0.013 | barasertib -0.007 | [2] 0.009 | volasertib 0.031 | [3] -0.008 | [4] -0.124 | [5] 0.104 | saracatinib -0.002 | sotrastaurin 0.002

TIPRL (UniProt O75663)
inactive: vemurafenib -0.02 | [1] 0.021 | barasertib 0.017 | [2] -0.036 | volasertib -0.014 | [3] 0.014 | [4] -0.047 | [5] 0.024 | saracatinib 0.002 | sotrastaurin -0.023

TLCD1 (UniProt Q96CP7)
inactive: vemurafenib 0.042 | [1] -0.073 | barasertib 0 | [2] -0.087 | volasertib 0.086 | [3] 0.17 | [4] -0.103 | [5] -0.011 | saracatinib -0.013 | sotrastaurin 0.036

TMEM115 (UniProt Q12893)
inactive: vemurafenib -0.059 | [1] 0.064 | barasertib 0.008 | [2] -0.017 | volasertib 0.014 | [3] 0.009 | [4] -0.039 | [5] 0.033 | saracatinib 0.033 | sotrastaurin -0.063

TK2 isoform 6 (UniProt O00142)
inactive: vemurafenib -0.074 | [1] -0.053 | barasertib 0.053 | [2] 0.07 | volasertib 0.051 | [3] -0.153 | [4] 0.064 | [5] 0.013 | saracatinib 0.155 | sotrastaurin 0

THNSL1 (UniProt Q8IYQ7)
inactive: vemurafenib 0.047 | [1] -0.001 | barasertib 0.03 | [2] 0.016 | volasertib -0.037 | [3] 0.036 | [4] 0.012 | [5] -0.024 | saracatinib -0.007 | sotrastaurin -0.01

TMEM127 (UniProt O75204)
inactive: vemurafenib 0.13 | barasertib 0.102 | [2] -0.05 | saracatinib 0.002

TLR9 isoform 4 (UniProt Q9NR96)
inactive: vemurafenib -0.043 | [1] 0.006 | barasertib 0.053 | [2] 0.189 | volasertib 0.011 | [3] 0.017 | [4] 0.209 | [5] 0.086 | saracatinib -0.014 | sotrastaurin -0.046

TMEM104 (UniProt Q8NE00)
inactive: vemurafenib 0.063 | barasertib 0.076 | [4] -0.034 | [5] 0.041 | sotrastaurin -0.034

TM9SF1 (UniProt O15321)
inactive: vemurafenib 0.035 | [1] -0.072 | barasertib 0.081 | [2] -0.089 | volasertib 0.028 | [3] 0.014 | saracatinib 0.051 | sotrastaurin -0.015

THAP5 (UniProt Q7Z6K1)
inactive: saracatinib 0.166
